Experimental data as given in the supplement of paper PMC10849652.
The other results are listed elsewhere or left out.

The chains behind the UniProt entries cited, without tags or fusion partners. Where a name states a change or a piece, a line headed by the entry shows the natural chain unless it says otherwise.
UniProt Q9UHR6: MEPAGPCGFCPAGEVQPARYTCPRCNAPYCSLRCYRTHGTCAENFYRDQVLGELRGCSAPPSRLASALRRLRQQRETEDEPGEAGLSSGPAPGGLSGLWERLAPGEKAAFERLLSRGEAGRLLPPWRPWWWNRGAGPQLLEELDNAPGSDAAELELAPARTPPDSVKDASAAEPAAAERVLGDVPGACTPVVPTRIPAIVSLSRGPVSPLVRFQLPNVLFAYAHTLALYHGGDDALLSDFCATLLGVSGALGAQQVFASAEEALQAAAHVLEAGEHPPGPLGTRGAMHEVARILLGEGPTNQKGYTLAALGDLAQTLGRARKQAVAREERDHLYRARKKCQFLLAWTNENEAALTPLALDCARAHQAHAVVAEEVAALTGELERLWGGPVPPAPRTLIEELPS
UniProt Q9H5H4: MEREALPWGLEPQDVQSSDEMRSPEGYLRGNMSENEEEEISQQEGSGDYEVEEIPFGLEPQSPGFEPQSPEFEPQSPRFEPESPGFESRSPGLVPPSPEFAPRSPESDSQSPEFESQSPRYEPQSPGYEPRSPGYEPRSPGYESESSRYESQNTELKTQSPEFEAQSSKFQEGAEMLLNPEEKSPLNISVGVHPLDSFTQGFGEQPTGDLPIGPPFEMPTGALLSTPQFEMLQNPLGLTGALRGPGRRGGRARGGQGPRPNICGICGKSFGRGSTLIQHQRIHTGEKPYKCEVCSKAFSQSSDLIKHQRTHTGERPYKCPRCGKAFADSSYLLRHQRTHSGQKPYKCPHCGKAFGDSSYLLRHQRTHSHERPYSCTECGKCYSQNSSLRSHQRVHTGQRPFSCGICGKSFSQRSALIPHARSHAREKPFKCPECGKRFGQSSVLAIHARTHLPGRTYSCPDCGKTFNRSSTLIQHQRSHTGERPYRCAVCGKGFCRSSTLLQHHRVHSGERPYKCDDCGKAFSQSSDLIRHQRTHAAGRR
UniProt Q9NWK9: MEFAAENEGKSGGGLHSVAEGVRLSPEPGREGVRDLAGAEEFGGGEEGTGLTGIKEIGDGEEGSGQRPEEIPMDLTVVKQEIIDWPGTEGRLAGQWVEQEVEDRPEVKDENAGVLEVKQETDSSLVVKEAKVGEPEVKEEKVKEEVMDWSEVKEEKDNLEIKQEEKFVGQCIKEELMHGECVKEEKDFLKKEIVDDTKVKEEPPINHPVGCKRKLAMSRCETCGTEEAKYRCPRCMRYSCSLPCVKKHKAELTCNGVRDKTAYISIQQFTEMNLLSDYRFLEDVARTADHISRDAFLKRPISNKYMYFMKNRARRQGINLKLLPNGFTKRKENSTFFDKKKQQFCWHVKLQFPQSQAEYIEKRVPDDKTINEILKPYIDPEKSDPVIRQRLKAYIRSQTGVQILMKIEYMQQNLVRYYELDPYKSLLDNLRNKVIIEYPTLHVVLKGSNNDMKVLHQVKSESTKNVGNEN
UniProt P35789: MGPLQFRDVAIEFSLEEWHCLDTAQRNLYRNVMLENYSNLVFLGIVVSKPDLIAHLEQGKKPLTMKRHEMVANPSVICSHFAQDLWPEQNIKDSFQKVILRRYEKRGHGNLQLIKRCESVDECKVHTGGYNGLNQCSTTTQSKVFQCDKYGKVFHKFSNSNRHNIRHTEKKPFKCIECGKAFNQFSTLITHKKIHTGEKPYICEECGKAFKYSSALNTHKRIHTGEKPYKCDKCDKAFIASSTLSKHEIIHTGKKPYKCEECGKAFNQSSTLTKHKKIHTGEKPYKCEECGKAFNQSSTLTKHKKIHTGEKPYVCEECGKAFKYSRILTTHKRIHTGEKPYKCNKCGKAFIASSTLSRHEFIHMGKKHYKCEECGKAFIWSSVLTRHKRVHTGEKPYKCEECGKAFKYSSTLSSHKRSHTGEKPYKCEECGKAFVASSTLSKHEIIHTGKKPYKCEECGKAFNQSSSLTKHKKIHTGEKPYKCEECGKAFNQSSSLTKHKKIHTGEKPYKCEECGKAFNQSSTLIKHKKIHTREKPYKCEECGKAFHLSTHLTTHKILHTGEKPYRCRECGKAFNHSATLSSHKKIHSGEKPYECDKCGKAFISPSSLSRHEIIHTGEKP
UniProt O95229: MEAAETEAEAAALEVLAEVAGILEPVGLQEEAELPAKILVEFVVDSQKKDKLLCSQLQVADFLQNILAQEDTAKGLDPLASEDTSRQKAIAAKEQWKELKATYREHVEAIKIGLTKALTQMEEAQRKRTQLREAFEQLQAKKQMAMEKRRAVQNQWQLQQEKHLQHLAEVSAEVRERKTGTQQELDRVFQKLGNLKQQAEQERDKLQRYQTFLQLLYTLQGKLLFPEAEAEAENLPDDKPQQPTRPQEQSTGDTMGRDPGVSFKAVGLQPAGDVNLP
UniProt Q9P2E3: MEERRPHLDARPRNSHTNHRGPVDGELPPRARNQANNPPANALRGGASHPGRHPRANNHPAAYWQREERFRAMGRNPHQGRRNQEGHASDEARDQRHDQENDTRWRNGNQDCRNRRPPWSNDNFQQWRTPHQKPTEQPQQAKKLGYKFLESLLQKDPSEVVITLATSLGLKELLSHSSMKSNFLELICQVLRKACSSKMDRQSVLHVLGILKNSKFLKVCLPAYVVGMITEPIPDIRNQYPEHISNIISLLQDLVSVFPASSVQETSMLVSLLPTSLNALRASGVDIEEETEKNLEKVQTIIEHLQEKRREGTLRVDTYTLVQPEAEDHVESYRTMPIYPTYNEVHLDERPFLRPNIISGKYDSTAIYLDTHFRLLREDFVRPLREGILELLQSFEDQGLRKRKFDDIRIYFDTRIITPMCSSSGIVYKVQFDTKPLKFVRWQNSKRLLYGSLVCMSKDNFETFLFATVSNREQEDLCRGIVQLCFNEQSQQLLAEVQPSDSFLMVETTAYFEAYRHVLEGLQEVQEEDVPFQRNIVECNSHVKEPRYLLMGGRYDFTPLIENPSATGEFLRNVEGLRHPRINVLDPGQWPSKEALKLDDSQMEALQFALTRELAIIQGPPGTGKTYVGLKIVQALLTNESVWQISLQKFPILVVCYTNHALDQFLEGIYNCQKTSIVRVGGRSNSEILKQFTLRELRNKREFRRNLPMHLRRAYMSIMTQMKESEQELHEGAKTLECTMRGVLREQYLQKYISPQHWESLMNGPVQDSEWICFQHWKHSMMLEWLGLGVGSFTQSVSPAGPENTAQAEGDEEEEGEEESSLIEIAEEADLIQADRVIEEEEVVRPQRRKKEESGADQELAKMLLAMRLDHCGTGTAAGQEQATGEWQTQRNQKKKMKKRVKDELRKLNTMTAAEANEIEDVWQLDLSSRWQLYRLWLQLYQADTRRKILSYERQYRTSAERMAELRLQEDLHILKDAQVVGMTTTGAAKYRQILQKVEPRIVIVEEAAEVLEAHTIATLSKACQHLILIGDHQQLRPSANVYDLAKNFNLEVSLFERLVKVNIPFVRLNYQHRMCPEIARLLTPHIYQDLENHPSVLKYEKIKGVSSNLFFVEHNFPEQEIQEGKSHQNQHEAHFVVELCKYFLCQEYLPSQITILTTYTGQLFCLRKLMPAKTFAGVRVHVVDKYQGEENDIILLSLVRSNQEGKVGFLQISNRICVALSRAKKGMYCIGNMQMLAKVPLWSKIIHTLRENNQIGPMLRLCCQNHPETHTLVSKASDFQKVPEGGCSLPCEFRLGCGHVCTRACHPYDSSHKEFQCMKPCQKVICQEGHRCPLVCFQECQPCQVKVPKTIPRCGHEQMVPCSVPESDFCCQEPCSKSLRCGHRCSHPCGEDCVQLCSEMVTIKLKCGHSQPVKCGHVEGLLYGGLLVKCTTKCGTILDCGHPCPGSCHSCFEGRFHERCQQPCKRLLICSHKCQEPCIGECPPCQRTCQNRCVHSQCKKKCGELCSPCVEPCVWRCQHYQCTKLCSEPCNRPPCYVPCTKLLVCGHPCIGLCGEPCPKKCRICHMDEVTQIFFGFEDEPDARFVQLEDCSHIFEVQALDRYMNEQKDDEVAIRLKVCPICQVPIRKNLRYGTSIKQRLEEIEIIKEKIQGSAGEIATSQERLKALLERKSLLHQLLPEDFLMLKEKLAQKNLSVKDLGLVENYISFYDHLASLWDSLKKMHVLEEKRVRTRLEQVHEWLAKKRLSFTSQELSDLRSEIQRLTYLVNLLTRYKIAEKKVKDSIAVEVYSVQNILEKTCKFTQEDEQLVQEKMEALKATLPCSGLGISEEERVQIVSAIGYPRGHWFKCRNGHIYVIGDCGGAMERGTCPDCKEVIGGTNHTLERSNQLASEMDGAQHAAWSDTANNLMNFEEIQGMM
UniProt Q9H900: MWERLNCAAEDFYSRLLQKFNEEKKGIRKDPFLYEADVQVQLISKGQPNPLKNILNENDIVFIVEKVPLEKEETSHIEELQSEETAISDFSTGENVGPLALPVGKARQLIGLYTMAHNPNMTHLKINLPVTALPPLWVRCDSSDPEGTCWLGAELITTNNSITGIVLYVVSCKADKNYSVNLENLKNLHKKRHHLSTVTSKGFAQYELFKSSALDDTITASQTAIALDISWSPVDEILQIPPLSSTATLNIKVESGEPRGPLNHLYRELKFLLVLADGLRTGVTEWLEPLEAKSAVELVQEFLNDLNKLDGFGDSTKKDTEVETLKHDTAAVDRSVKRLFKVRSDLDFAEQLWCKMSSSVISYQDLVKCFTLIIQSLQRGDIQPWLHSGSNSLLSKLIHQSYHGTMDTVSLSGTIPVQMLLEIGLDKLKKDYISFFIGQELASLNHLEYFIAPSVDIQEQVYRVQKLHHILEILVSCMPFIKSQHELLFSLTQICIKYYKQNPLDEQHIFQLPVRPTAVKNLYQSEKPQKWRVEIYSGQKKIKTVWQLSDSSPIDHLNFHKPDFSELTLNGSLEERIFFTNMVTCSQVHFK
UniProt Q9UQR1: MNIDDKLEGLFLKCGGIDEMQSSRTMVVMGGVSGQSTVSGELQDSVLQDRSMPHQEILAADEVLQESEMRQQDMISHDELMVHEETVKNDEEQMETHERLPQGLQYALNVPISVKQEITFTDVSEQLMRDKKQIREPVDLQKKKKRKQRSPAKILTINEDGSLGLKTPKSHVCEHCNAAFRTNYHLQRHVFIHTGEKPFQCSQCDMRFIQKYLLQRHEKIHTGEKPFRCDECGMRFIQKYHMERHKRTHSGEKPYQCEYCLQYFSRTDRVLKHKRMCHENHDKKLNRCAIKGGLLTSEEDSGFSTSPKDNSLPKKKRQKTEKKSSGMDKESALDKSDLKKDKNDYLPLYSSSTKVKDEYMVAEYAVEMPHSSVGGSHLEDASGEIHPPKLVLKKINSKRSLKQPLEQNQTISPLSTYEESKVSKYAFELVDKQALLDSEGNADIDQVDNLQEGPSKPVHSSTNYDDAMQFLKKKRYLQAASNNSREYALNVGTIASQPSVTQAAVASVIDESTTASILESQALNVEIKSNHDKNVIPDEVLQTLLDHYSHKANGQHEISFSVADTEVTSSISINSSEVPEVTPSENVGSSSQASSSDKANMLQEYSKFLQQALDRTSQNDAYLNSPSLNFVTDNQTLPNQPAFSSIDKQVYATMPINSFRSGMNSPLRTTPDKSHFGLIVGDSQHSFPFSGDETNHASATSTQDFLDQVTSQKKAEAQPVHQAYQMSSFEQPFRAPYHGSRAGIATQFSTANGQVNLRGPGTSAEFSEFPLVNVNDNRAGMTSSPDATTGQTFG
UniProt Q99676: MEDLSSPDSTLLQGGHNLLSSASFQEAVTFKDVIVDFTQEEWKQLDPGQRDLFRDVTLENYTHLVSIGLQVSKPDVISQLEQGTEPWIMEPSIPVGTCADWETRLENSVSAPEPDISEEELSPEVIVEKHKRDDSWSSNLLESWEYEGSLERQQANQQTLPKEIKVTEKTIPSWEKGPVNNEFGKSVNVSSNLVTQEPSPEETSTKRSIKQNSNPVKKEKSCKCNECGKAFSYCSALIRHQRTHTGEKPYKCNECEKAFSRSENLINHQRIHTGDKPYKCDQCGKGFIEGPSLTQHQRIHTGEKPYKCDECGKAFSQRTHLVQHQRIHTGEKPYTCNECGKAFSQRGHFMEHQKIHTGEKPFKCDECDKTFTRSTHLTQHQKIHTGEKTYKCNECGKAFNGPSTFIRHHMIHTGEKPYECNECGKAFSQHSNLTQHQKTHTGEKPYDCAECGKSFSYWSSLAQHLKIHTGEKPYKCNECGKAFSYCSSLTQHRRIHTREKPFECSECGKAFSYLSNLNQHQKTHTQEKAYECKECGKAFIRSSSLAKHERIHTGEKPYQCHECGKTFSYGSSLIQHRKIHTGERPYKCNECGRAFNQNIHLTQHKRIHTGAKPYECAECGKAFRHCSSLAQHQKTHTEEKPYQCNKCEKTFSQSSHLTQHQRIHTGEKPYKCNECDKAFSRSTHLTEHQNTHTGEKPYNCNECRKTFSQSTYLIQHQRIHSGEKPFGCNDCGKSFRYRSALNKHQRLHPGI

Tests used:
Experiment in all cases: log2 fold change, soluble protein after heating vs DMSO (PISA); higher = thermal stabilisation; K562 lysate, 10 uM; active = over 0.2 and 3.5 SD of the protein, either way, in both replicates (recomputed)
[1] = compound: Cc1cn(-c2cc(NC(=O)c3ccc(C)c(Nc4nccc(-c5cccnc5)n4)c3)cc(C(F)(F)F)c2)cn1 [nilotinib]
In short: (§1)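 Thermal stability, expressed as log-two fold change relative to solvent controls, is given from duplicates. Crude K562 extract in PBS pH 7.4 with 1 mM MgCl2, at 1 mg/mL protein, was treated with 10 μM compound for 30 min and heated in aliquots for 3 min across 48°C-58°C. After pooling, adjustment to 0.5% NP-40 at 4°C and centrifugation at 21,000xg for 90 min, supernatant protein was measured by TMTpro 16plex LC-MS/MS with channel sums equalised.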

[2] = compound: Cc1nc(Nc2n[nH]c3c2CN(C(=O)N[C@H](CN(C)C)c2ccccc2)C3(C)C)c2sccc2n1
In short: as §1

[3] = compound: Cc1nc(Nc2ncc(C(=O)Nc3c(C)cccc3Cl)s2)cc(N2CCN(CCO)CC2)n1 [dasatinib]
In short: as §1

[4] = compound: Cc1ncc(-c2ccnc(Nc3ccc(S(C)(=O)=O)cc3)n2)n1C(C)C
In short: as §1

[5] = compound: Cn1cc(-c2ccc3c(c2)CCN3C(=O)Cc2cccc(C(F)(F)F)c2)c2c(N)ncnc21
In short: as §1

[6] = compound: Cn1cc(CNCC2CCN(c3ncc(C(=O)NO)cn3)CC2)c2ccccc21 [quisinostat]
In short: as §1

[7] = compound: Cn1cncc1[C@@](N)(c1ccc(Cl)cc1)c1ccc2c(c1)c(-c1cccc(Cl)c1)cc(=O)n2C [tipifarnib]
In short: as §1

[8] = compound: NC(=O)Nc1cc(-c2cccc(F)c2)sc1C(=O)N[C@H]1CCCNC1
In short: as §1

[9] = compound: NC(=O)c1cnc(N[C@@H]2CCCC[C@@H]2N)nc1Nc1cccc(-n2nccn2)c1
In short: as §1

[10] = compound: NC1(c2ccc(-c3nc4ccn5c(=O)[nH]nc5c4cc3-c3ccccc3)cc2)CCC1
In short: as §1

[11] = compound: NCC(=O)Nc1ccc(-n2nc(C(F)(F)F)cc2-c2ccc3c(ccc4ccccc43)c2)cc1
In short: as §1

[12] = compound: O=C(CCCCCCC(=O)Nc1ccccc1)NO [vorinostat]
In short: as §1

[13] = compound: O=C(O)c1ccc2c(c1)nc(Nc1cccc(Cl)c1)c1ccncc12 [silmitasertib]
In short: as §1

[14] = compound: O=C1NC(=O)C(c2cnc3ccccn23)=C1c1cn2c3c(cc(F)cc13)CN(C(=O)N1CCCCC1)CC2
In short: as §1

[15] = compound: c1cn2cc(-c3ccc4cn[nH]c4c3)nc(Nc3ccc(N4CCOCC4)cc3)c2n1 [entospletinib]
In short: as §1

Measured: log2 fold change

ZMYND8 isoform 19 (UniProt Q9ULU4)
inactive: [1] -0.011 | [2] -0.056 | [3] -0.019 | [4] 0.022 | [5] 0.036 | [6] -0.073 | [7] -0.025 | [8] -0.004 | [9] 0.009 | [10] 0.043 | [11] 0.059 | [13] 0.029 | [14] 0.006 | [15] -0.02
active: [12] -0.224

ZNHIT2 (UniProt Q9UHR6)
inactive: [1] 0.059 | [2] -0.002 | [3] -0.077 | [4] 0.21 | [5] 0.016 | [6] -0.077 | [7] 0.003 | [8] 0.073 | [9] -0.134 | [10] -0.106 | [11] -0.155 | [12] 0.087 | [13] -0.04 | [14] -0.016 | [15] -0.006

ZNF768 (UniProt Q9H5H4)
inactive: [1] -0.028 | [2] 0.026 | [3] 0.021 | [4] -0.141 | [5] 0.008 | [6] 0.003 | [7] 0.064 | [8] 0.037 | [9] 0.005 | [10] -0.019 | [11] 0.01 | [12] 0.051 | [13] 0.022 | [14] -0.081 | [15] -0.015

ZMIZ1 (UniProt Q9ULJ6)
inactive: [1] -0.018 | [2] 0.018 | [3] -0.002 | [4] -0.011 | [5] -0.004 | [6] -0.044 | [7] -0.004 | [8] 0.031 | [9] -0.009 | [10] -0.012 | [11] 0.007 | [12] -0.066 | [13] -0.007 | [14] -0.001 | [15] -0.022

ZNF609 (UniProt O15014)
inactive: [1] -0.14 | [2] -0.023 | [3] -0.014 | [4] 0.001 | [5] -0.044 | [6] -0.006 | [7] 0.01 | [8] 0.061 | [9] -0.015 | [10] 0.003 | [11] 0.184 | [13] 0.041 | [14] -0.013 | [15] -0.026
active: [12] -0.309

ZNF451 (UniProt Q9Y4E5)
active: [12] -0.538
inactive: [1] 0.016 | [2] 0.013 | [3] -0.028 | [4] -0.033 | [5] 0.02 | [6] -0.044 | [7] -0.049 | [8] 0.022 | [9] 0.044 | [10] -0.038 | [11] 0.064 | [13] -0.003 | [14] -0.013 | [15] 0.019

ZNHIT6 (UniProt Q9NWK9)
inactive: [1] -0.023 | [2] 0 | [3] -0.037 | [4] -0.005 | [5] 0.004 | [6] -0.04 | [7] 0.014 | [8] 0.087 | [9] 0.028 | [10] -0.022 | [11] 0.001 | [13] -0.041 | [14] 0.002 | [15] -0.062
active: [12] -0.218

ZNF93 (UniProt P35789)
inactive: [1] -0.09 | [2] -0.101 | [3] -0.073 | [4] -0.039 | [5] -0.021 | [6] -0.104 | [7] -0.134 | [8] 0.044 | [9] -0.056 | [10] 0.091 | [11] 0.008 | [12] 0.022 | [13] -0.117 | [14] -0.045 | [15] 0.063

ZKSCAN1 (UniProt P17029)
inactive: [1] 0.139 | [2] -0.118 | [3] -0.028 | [4] 0.055 | [5] 0.031 | [6] -0.023 | [7] 0.002 | [8] 0.045 | [9] 0.023 | [10] -0.032 | [11] 0.005 | [12] -0.165 | [13] 0.006 | [14] -0.01 | [15] 0.01

2 neighbouring entries already listed, for reference:
ZNF451 (UniProt Q9Y4E5)
active: [12] -0.538
inactive: [1] 0.016 | [2] 0.013 | [3] -0.028 | [4] -0.033 | [5] 0.02 | [6] -0.044 | [7] -0.049 | [8] 0.022 | [9] 0.044 | [10] -0.038 | [11] 0.064 | [13] -0.003 | [14] -0.013 | [15] 0.019

ZNHIT6 (UniProt Q9NWK9)
inactive: [1] -0.023 | [2] 0 | [3] -0.037 | [4] -0.005 | [5] 0.004 | [6] -0.04 | [7] 0.014 | [8] 0.087 | [9] 0.028 | [10] -0.022 | [11] 0.001 | [13] -0.041 | [14] 0.002 | [15] -0.062
active: [12] -0.218

Next records

ZNF24 (UniProt P17028)
inactive: [1] 0.036 | [2] -0.144 | [3] 0.038 | [4] 0.098 | [5] 0.012 | [6] -0.009 | [7] -0.011 | [8] 0.017 | [9] 0.001 | [10] 0.051 | [11] 0 | [12] -0.174 | [13] -0.023 | [14] -0.05 | [15] -0.016

ZWINT (UniProt O95229)
inactive: [1] -0.034 | [2] 0.027 | [3] -0.017 | [4] 0.018 | [5] -0.005 | [6] -0.011 | [7] 0.021 | [8] -0.017 | [9] -0.029 | [10] -0.019 | [11] 0.022 | [12] 0.129 | [13] -0.015 | [14] 0 | [15] 0.016

ZPR1 (UniProt O75312)
inactive: [1] -0.017 | [2] -0.001 | [3] 0.019 | [4] -0.027 | [5] -0.035 | [6] 0.014 | [7] 0.009 | [8] -0.035 | [9] 0.012 | [10] -0.011 | [11] 0.008 | [12] 0.105 | [13] -0.009 | [14] -0.018 | [15] 0.012

ZNFX1 (UniProt Q9P2E3)
inactive: [1] 0.05 | [2] 0.022 | [3] 0.017 | [4] 0.004 | [5] 0.06 | [6] -0.097 | [7] -0.007 | [8] 0.098 | [9] 0.006 | [10] 0.098 | [11] 0.143 | [12] -0.296 | [13] 0.069 | [14] 0.075 | [15] 0.015

ZNF428 (UniProt M0QXZ5)
inactive: [1] 0.035 | [2] -0.014 | [3] -0.094 | [4] 0.062 | [5] -0.007 | [6] 0.028 | [7] 0.065 | [8] 0.027 | [9] -0.052 | [10] 0.033 | [11] 0.006 | [12] 0.079 | [13] 0.005 | [14] 0.026 | [15] 0.02

ZWILCH (UniProt Q9H900)
inactive: [1] 0.029 | [2] 0.008 | [3] -0.033 | [4] 0 | [5] -0.004 | [6] -0.028 | [7] -0.045 | [8] 0.019 | [9] 0.017 | [10] 0.004 | [11] -0.032 | [12] -0.158 | [13] 0.005 | [14] -0.019 | [15] -0.025

ZNF148 (UniProt Q9UQR1)
inactive: [1] -0.203 | [2] -0.033 | [3] 0.121 | [4] -0.109 | [5] -0.045 | [6] -0.184 | [7] 0.124 | [8] -0.007 | [10] -0.028 | [11] 0.017 | [12] -0.015 | [13] 0.169 | [14] -0.068 | [15] -0.084

ZNF184 (UniProt Q99676)
inactive: [1] -0.024 | [2] 0.074 | [3] 0.046 | [4] -0.041 | [5] 0.038 | [6] 0.059 | [7] 0.08 | [8] -0.032 | [14] 0.124

ZNF511 (UniProt Q8NB15)
inactive: [1] 0.105 | [2] 0.01 | [3] -0.136 | [4] 0.041 | [5] -0.036 | [6] 0.021 | [7] -0.001 | [8] 0.002 | [9] -0.041 | [10] 0.016 | [11] 0.211 | [12] -0.107 | [13] -0.027 | [14] 0.018 | [15] -0.036

ZMYM4 (UniProt Q5VZL5)
active: [12] -0.383
inactive: [1] -0.016 | [2] 0.003 | [3] -0.001 | [4] -0.005 | [5] -0.061 | [6] -0.028 | [7] -0.051 | [8] 0.067 | [9] 0.021 | [10] -0.003 | [11] 0.05 | [13] -0.016 | [14] 0.009 | [15] -0.013

ZNF629 (UniProt Q9UEG4)
inactive: [1] -0.007 | [2] 0.019 | [3] 0.023 | [4] 0.012 | [5] 0.017 | [6] 0.036 | [7] 0.048 | [8] -0.021 | [9] -0.033 | [10] -0.022 | [11] -0.034 | [12] 0.077 | [13] -0.024 | [14] 0.028 | [15] -0.038

ZNF639 (UniProt Q9UID6)
inactive: [1] -0.071 | [2] 0.131 | [3] -0.009 | [4] -0.02 | [5] 0.036 | [6] -0.013 | [7] 0.003 | [8] -0.004 | [10] -0.006 | [11] -0.067 | [12] 0.136 | [13] -0.073 | [14] 0.014
